These are yes or no findings as the source states them, for the method shown. Binding seen in cells or lysates may run through a third protein. Some entries that bind do so weakly or less than the wild type. Sequences can lack the tags named with a protein.

The target in the assay is T1, Myc-tagged KIF4 (wild type) (human) (UniProt O95239).
T1 sequence: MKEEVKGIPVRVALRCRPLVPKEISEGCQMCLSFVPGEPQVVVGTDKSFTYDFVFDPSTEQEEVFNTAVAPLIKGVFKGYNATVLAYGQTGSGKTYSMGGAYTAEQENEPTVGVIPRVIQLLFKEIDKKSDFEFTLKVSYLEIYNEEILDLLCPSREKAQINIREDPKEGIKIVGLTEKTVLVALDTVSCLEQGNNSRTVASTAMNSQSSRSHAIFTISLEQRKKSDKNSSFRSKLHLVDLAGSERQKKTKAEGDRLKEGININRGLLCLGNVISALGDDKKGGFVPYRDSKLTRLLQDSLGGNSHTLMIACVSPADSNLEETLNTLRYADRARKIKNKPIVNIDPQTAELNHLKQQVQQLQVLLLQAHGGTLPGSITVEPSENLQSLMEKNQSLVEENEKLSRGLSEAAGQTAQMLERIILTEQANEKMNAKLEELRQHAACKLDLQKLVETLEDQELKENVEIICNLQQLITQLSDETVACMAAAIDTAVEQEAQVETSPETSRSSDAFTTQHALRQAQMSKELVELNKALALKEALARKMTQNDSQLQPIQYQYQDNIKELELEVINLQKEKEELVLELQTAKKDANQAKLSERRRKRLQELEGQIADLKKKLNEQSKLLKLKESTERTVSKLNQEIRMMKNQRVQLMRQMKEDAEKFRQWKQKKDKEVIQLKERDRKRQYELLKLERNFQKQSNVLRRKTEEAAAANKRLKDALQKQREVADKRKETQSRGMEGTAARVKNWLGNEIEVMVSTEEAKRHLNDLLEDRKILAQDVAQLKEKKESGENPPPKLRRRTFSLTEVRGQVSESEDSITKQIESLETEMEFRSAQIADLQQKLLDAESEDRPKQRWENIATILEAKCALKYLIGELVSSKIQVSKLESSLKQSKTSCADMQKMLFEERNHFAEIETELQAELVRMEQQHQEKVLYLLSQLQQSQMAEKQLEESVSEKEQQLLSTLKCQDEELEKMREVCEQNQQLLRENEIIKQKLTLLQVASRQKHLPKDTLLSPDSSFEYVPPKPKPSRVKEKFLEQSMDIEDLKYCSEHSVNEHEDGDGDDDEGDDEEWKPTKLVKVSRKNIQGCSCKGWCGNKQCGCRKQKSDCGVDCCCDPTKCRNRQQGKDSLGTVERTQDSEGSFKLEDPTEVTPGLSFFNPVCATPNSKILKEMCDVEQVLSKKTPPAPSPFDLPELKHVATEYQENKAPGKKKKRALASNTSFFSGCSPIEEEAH
Kind of assay: co-IP.

B1: HA-tagged NTCP (receptor, UniProt Q14973 1-349)
chain: MEAHNASAPFNFTLPPNFGKRPTDLALSVILVFMLFFIMLSLGCTMEFSKIKAHLWKPKGLAIALVAQYGIMPLTAFVLGKVFRLKNIEALAILVCGCSPGGNLSNVFSLAMKGDMNLSIVMTTCSTFCALGMMPLLLYIYSRGIYDGDLKDKVPYKGIVISLVLVLIPCTIGIVLKSKRPQYMRYVIKGGMIIILLCSVAVTVLSAINVGKSIMFAMTPLLIATSSLMPFIGFLLGYVLSALFCLNGRCRRTVSMETGCQNVQLCSTILNVAFPPEVIGPLFFFPLLYMIFQLGEGLLLIAIFWCYEKFKTPKDKTKMIYTAATTEETIPGALGNGTYKGEDCSPCTA
In the case of B1, the binding result is given as “binds”.

These data come from doi:10.1101/2021.09.29.462331.
